Library screening results

Data taken from ChEMBL document CHEMBL3988442, “University of Dundee, Small-Polar-MMV Screening Library” (2021).

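Whole-cell assay for inhibitors of Mycobacterium tuberculosis growth, labelled Cornell in the record; the read-out is not stated. The concentration is filed as 10 mM, unlikely as a test dose, so the dose is not known. Higher means stronger inhibition (inferred from two other growth screens of the library). Size under these conditions: about 53,000 compounds, about 900 of them at 50% or above in at least one test.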

Each number is a percent effect as filed. The controls that fix the scale are not given in the record; negative values are as filed. Compounds were drawn at random from those tested, without regard to their results.

Compound	Percent Effect
CCCN1CC2(CCN(C)CC2)CC1C(=O)NCCn1cc(C)cn1 (centres undefined)	2.644
O=C(O)C(F)(F)F.[H][C@]12CC[C@@]3(N=C(CC)N(C)C3=O)[C@@]1([H])CN(Cc1ccc(F)cc1)C2	6.397
Cc1nccn1C1CCCN(C(=O)c2cccc3c2OCO3)C1 (centres undefined)	-27.52
N#Cc1cccnc1NCCNC(=O)NCCSC(F)(F)F	-11.63
CCN1CCCC(CNC(=O)CCc2ccc(OC)c(F)c2)C1 (centres undefined)	-11.67
Nc1nccnc1C1CN(C(=O)c2cnc(C3CC3)nc2)CCO1 (centres undefined)	3.031
Cc1cc(Cc2cccc(C(F)(F)F)c2)cc(C2CCCNC2)n1 (centres undefined)	42.52
NC(=O)CN1CCCC(c2ccnc(Nc3ncccn3)c2)C1 (centres undefined)	-27.58
c1ccc(-c2ncn(CCCN3CCOCC3)c2-c2ccncc2)cc1	5.469
COc1ccccc1C(C)(C)NCc1ccco1	14.99
Cc1cnc(N2CCC3(CC2)CC3C(=O)NCC2CC2)nc1 (centres undefined)	11.97
COC1COC2(CCN(Cc3cccc(Cl)c3)CC2)C1.O=C(O)C(F)(F)F (centres undefined)	-6.633
O=C(CN1CCCC1)N1CCCC(c2cc(=O)n3c(n2)CCCCC3)C1 (centres undefined)	-8.657
O=C(O)C(F)(F)F.O=C(O)C(F)(F)F.[H][C@@]12COC[C@]1(CNS(=O)(=O)CC)CN(Cc1cccnc1OC)C2	22.45
O=C(NCC1CCCO1)c1cc(-c2cccnc2)c2cnccc2n1 (centres undefined)	9.564
Cc1ccccc1C(=O)N1CCN(c2ccc(-n3cncn3)nn2)CC1	6.266
Cc1nc2[nH]cnc(NCCN3CCCC3)c-2n1	-40.04
O=C(c1cccc(Oc2ccccc2)c1)N1CCCC(O)(CO)CC1 (centres undefined)	-35.96
O=C1CC[C@@H](C(=O)N2CCc3[nH]nc(COc4cccc(Cl)c4)c3C2)N1	34.21
CN(C)CCN1CC(C(=O)N(C)Cc2cc3cc(F)ccc3[nH]2)CC1=O (centres undefined)	29.76
O=C(O)C(F)(F)F.O=C(c1ccncc1F)N1CCc2onc(COc3cccnc3)c2C1	28.69
Cc1cccc(C(C)(C)NC(=O)CCS(C)(=O)=O)c1	15.94
Cc1ccc(-c2ncc(C(=O)N3CCCC(CCN)C3)c(O)n2)cc1 (centres undefined)	26.57
O=C(NCC(O)c1ccccc1Cl)c1cccc(-n2cnnn2)c1 (centres undefined)	-29.25
CCc1nc(N2CCC3(CC2)CC(=O)N(Cc2ccc(Cl)cc2)C3)no1	4.983
CCS(=O)(=O)N1CCC2(CCCN(Cc3ccc(F)c(F)c3)C2=O)C1 (centres undefined)	-11.85
Cc1nn(C)cc1CN1CCCCCC1c1ccc(Cl)cc1 (centres undefined)	25.67
CCCS(=O)(=O)NCC(O)c1c(Cl)cccc1Cl (centres undefined)	45.75
CS(=O)(=O)N1CCC2(CN(C(=O)c3cccnc3)C2)C1.O=C(O)C(F)(F)F	27.95
Cc1ccc(CC(=O)NC2CCN(c3cccc(Cl)c3)C2)cn1 (centres undefined)	28.06
Cc1ccc(NC2CCN(C(=O)CCNc3ncccn3)CC2)nn1	39.01
CCN1CCC(CNC(=O)C2(c3cccc(C)c3)CCCCC2)CC1	6.859
O=C(O)C(F)(F)F.O=C(O)C(F)(F)F.[H][C@@]12OCCN(Cc3nccs3)[C@@]1([H])CC[C@H]2OCCN1CCCC1	-16.49
CC(c1ccco1)N(C(=O)CNc1ccc(C#N)cc1)C1CC1 (centres undefined)	2.127
Cc1ccnc(C2CN(c3ncccn3)C2)n1	6.55
Cc1cnn(C2CCCN(C(=O)c3c(C)oc(C)c3C)C2)c1 (centres undefined)	15.18
O=C(Cn1cc(-c2ccccc2)ncc1=O)Nc1nc(C2CC2)n[nH]1	-31.79
Cc1cc(C(=O)NCc2ccc(-c3n[nH]cc3C(=O)N(C)C)cc2)on1	5.219
COc1ccccc1OCCc1cc(C2CCNC2)n[nH]1.Cl.Cl (centres undefined)	-3.008
[H][C@]12CC[C@]([H])(CN(Cc3cccc(OCc4ccccn4)c3)C1)N(C)C2=O	24.29
COCCC(=O)N1CCC(c2ccc3c(NC(C)C)n[nH]c3n2)C1 (centres undefined)	12.63
Cc1nc(CN2CCOC3(CCCN(c4nccs4)C3)C2)cs1 (centres undefined)	6.966
Fc1ccc(C2CN(c3ncnc4[nH]ncc34)CCO2)cc1 (centres undefined)	7.172
Cc1cc(C2CCCN2CCCS(=O)(=O)c2ccccc2)no1 (centres undefined)	21.42
Cc1nc(CCNC(=O)c2cc(C(C)C)nn2C)sc1C	10.78
CN(Cc1cccc(Cl)c1)Cc1nnsc1Cl	-7.574
CCC(=O)CNC(=O)CCn1nc2ccccn2c1=O	-6.792
CC(C)Cn1cnnc1C1CCCN1C(=O)OC(C)(C)C (centres undefined)	-15.19
Cc1ccc(CNCc2nnc3n2CCCC3C(F)(F)F)s1 (centres undefined)	8.81
Cc1cc(=O)n2ncnc2n1CC(O)c1ccccc1Cl (centres undefined)	-6.984
O=C(O)c1cc(-c2cccs2)nc2c(Br)cnn12	-23.34
O=C(O)C(F)(F)F.O=C(O)C(F)(F)F.[H][C@]12C[C@@H](CN3CCCC3)N(C)[C@@]1([H])CCN(C(=O)c1cnoc1C)C2	18.12
CC(C)Oc1ncccc1CNC(=O)NC(C)c1cccs1 (centres undefined)	2.429
O=C(O)C(F)(F)F.O=C(O)C(F)(F)F.[H][C@@]12CCN(Cc3ccncc3)C[C@@]1([H])O[C@H](C(=O)NC1CCC1)C2	31.19
COc1ccc(CN2CC(O)CN(C(=O)OCC(C)C)CC2=O)cc1 (centres undefined)	-14.26
O=C(c1cscn1)N1CCc2ncnc(-c3ccncc3)c2CC1	-13.46
COC(=O)N1CCCCC1C(=O)N1CCCN(c2ccnc(C)c2)CC1 (centres undefined)	14.52
CN(C)CCCn1ccnc1C1CCCN(c2cc(N)ncn2)C1 (centres undefined)	22.59
CC(=O)N1Cc2cnc(C(C)(C)C)nc2C1	-38.59
NCc1cnn(-c2ccccc2C(=O)NCc2ccncc2)c1	-55.5
Cl.NC(=O)COc1ccc(CNCc2cc(F)ccc2F)cc1	-18.2
COCC(=O)N1CCOC2(CCCN(c3cnccn3)C2)C1.O=C(O)C(F)(F)F (centres undefined)	-18.79
O=C1NC(C(=O)NCc2cccnc2Oc2ccc(F)cc2F)CO1 (centres undefined)	-11.28
O=C(O)C(F)(F)F.[H][C@@]12CN(Cc3cnn(C)c3)CCO[C@]1([H])CN(S(=O)(=O)CCC)C2	21.9
Cc1nn(CC(=O)O)c(C)c1NS(=O)(=O)c1cccc2ccccc12	-8.234
Cc1cnc(CCNC(=O)NCCOc2ncccc2Cl)s1	-15.02
CCNc1nc(C(=O)N(C)Cc2nc(CC)no2)cs1	11.23
CC(C)(C)c1c[nH]c([C@@H]2COCCN2C2CCNCC2)n1	15.86
O=C(O)C(F)(F)F.[H][C@@]12CN(Cc3ccoc3)CCO[C@]1([H])CN(C(=O)CCc1ccccc1)C2	28.72
[H][C@@]12CCCO[C@]1([H])[C@@H](Oc1cccnc1)CN2C(=O)C1=CCCC1	13.73
c1ccc(CCN2CCCC(Cn3ccnc3)C2)cc1 (centres undefined)	-11.78
Cn1ccc(C(=O)N2CCC[C@]3(C[C@@H](OCc4ccccn4)CO3)C2)n1.O=C(O)C(F)(F)F	3.592

For reference, 9 entries once more:

| Compound | Percent Effect |
|---|---|
| `c1ccc(CCN2CCCC(Cn3ccnc3)C2)cc1` (centres undefined) | -11.78 |
| `N#Cc1cccnc1NCCNC(=O)NCCSC(F)(F)F` | -11.63 |
| `CN(C)CCN1CC(C(=O)N(C)Cc2cc3cc(F)ccc3[nH]2)CC1=O` (centres undefined) | 29.76 |
| `COc1ccccc1C(C)(C)NCc1ccco1` | 14.99 |
| `CCC(=O)CNC(=O)CCn1nc2ccccn2c1=O` | -6.792 |
| `O=C(Cn1cc(-c2ccccc2)ncc1=O)Nc1nc(C2CC2)n[nH]1` | -31.79 |
| `Cc1cccc(C(C)(C)NC(=O)CCS(C)(=O)=O)c1` | 15.94 |
| `O=C(O)C(F)(F)F.O=C(c1ccncc1F)N1CCc2onc(COc3cccnc3)c2C1` | 28.69 |
| `Cc1cnc(CCNC(=O)NCCOc2ncccc2Cl)s1` | -15.02 |